Data reported in publication PMC4477410.
No constants are given. Whether binding was seen depends on the method and setting. Binding seen in cells or lysates may run through a third protein. A result given as binding can be weak or reduced; the word gives no strength. Sequences can lack the tags named with a protein.

Amino acid sequences for entries named in this document (tags omitted). A change or cut given only in a name is not applied to a line headed by its entry.
UniProt P29476: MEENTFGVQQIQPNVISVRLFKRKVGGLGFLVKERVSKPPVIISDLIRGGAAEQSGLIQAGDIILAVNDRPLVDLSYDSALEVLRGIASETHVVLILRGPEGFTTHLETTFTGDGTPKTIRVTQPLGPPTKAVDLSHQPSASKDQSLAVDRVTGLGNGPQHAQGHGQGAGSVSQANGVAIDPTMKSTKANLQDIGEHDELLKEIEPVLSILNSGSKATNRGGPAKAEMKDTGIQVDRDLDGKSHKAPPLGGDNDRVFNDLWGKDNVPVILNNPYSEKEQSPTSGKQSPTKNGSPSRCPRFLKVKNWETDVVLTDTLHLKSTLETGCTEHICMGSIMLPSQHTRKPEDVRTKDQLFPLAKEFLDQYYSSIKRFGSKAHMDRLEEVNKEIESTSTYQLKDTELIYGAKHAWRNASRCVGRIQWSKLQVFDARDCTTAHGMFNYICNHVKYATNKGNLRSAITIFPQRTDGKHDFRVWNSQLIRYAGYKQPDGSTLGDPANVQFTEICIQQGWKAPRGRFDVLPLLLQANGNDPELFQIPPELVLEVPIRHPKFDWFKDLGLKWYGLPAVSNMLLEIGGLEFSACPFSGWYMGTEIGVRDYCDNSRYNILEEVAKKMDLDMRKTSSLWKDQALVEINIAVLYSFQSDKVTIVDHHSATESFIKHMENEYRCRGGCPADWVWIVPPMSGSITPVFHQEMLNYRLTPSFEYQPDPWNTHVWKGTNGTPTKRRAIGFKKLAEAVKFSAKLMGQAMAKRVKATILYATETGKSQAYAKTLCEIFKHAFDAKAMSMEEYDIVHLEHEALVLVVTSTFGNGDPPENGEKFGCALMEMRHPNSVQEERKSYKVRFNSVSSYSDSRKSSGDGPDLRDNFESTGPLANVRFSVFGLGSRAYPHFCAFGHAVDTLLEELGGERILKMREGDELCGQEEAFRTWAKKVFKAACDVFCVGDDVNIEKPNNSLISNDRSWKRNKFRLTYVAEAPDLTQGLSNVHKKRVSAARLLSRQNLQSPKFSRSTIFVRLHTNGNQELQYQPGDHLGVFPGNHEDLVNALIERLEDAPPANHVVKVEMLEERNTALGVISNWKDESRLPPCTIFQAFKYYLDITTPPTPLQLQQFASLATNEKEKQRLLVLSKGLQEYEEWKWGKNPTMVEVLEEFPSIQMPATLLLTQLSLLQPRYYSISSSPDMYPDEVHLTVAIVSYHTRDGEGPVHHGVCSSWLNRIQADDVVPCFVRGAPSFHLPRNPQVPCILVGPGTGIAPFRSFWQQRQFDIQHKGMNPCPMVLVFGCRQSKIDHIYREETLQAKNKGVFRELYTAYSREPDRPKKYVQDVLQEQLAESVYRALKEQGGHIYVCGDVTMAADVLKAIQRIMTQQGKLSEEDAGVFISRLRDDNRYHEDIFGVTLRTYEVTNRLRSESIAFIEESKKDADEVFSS

Target: PDZ domain of neuronal nitric oxide synthase (nNOS), Rluc PCA fusion (UniProt P29476)
Experiment: split reporter; Rluc PCA in S. cerevisiae MATa cells grown in galactose medium; about 1 x 10^6 cells, 10 uM benzyl-coelenterazine; with glucose (100 mM) or galactose

B1: PDZ domain of aSyntrophin (aSyn), Rluc PCA fusion (domain or fragment, UniProt Q61234 81-164)
chain: RVTVRKADAGGLGISIKGGRENKMPILISKIFKGLAADQTEALFVGDAILSVNGEDLSSATHDEAVQALKKTGKEVVLEVKYMK
binding: binds
